Measurements reported in PubChem BioAssay AID1671190 (National Center for Advancing Translational Sciences (NCATS), 2021).
About 6,100 (1.1%) of roughly 580,000 compounds were called active. Inconclusive means that the source gave no clear call. Such entries were picked first, then a sample of the others. Calls come from the whole dose curve; as a rule, active = well fitted inhibition curve with a large enough effect; inconclusive = small, poorly fitted or top-dose-only effect, or another doubt; inactive = no such curve, though single readings can be large or run the other way. A potency beside an inconclusive call is a rough fit, not a confirmed value.
% is set by controls: 0 for no effect and ±100 for the full control effect; potency is the fitted concentration of half-maximal effect.

Protein sequences, listed by entry. Tags and fused reporters are not part of them. Lines headed by an entry give the natural chain unless they say otherwise; changes in a name come on top.
UniProt P18054: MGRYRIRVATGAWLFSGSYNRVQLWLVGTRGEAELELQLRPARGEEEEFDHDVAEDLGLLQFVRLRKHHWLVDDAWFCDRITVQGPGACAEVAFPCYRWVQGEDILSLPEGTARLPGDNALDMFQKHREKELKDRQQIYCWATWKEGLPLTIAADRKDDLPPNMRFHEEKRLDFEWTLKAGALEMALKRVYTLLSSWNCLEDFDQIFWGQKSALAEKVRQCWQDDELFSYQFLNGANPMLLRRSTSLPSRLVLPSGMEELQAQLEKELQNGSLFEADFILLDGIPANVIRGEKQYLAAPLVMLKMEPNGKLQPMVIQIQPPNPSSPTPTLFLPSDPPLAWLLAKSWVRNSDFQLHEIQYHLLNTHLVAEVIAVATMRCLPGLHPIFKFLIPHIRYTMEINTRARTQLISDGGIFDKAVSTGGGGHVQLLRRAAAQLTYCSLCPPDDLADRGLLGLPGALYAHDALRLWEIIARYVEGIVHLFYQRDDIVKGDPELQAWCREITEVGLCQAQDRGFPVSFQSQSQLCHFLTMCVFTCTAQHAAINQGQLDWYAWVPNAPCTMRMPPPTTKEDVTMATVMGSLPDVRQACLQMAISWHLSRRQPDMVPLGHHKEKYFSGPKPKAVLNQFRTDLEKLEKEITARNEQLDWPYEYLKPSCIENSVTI

What follows are molecules tested against Polyunsaturated fatty acid lipoxygenase ALOX12 (Homo sapiens) (UniProt P18054) (assay: Primary qHTS assay for inhibitors of human arachidonate 12S-lipoxygenase (ALOX12): Round 2). Settings: purified 12hLO, xylenol orange hydroperoxide absorbance; activity change, negative = inhibition: at 108 µM (top of the series) unless noted.
Outline: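 Purified human 12hLO at 150 nM in 25 mM Hepes, 0.01% Triton X-100, pH 7.0, preincubated 15 min at room temperature with compound. Reaction started with 40 uM arachidonic acid, 30 min at room temperature. Hydroperoxide measured by Fe-xylenol orange, 573/405 nm absorbance ratio.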
With `COC(=O)c1ccc(CNC(=O)C2Cc3ccccc3O2)cc1` (centres undefined) the Potency was inconclusive: 112 µM [inhibitor, single point]. For `Cc1cc(Br)ccc1NC(=S)NCCc1ccccc1`, the Potency was inconclusive: 44.7 µM [inhibitor, partial curve, poor fit]. For `Cc1ccc(C(c2nc3ccccc3[nH]2)n2c(-c3ccccc3)nc3ccccc32)cc1` (centres undefined), the Potency was inconclusive: 100 µM [inhibitor, single point]. In the case of `COc1ccccc1CCNC(=O)C(=O)Nc1cc2c3c(c1)C(C)C(=O)N3CCC2` (centres undefined), the Potency is reported as inconclusive: 126 µM [inhibitor, partial curve, poor fit]. `O=C(CCS(=O)(=O)c1ccc(Br)cc1)Nc1ccc2c(c1)OCO2` was tested, and the Potency was inconclusive: 39.8 µM [inhibitor, partial curve, poor fit]. For `Cc1cccc(NC(=O)C2C3CCCCC32)c1` (centres undefined), the Potency was inconclusive: 7.08 µM [inhibitor, full curve, poor fit]. `COCCN1C(=O)[C@@H]2C[C@@H](CN2C(=O)Nc2ccccc2)Oc2ccccc21` was tested, and the “activity change, negative = inhibition” value was inactive: -7.35% [at 176 µM]. In the case of `CNC(=O)C1Cc2c(-c3ccc(Cl)cc3)ccnc2O1` (centres undefined), the Potency is reported as inconclusive: 126 µM [inhibitor, partial curve, poor fit]. `CC(C)c1ccc(/C=N/n2cnnc2)cc1` was tested, and the Potency was inconclusive: 141 µM [inhibitor, single point]. For `COc1ccccc1C1(CC(=O)N2CCOCC2)CCOC(C(C)C)C1` (centres undefined), the “activity change, negative = inhibition” value was inactive: 0%. `Cc1ccc(-n2ncc3c2CCCC3NC(=O)c2ccccc2N2CCOCC2)cc1C` (centres undefined) was tested, and the Potency was inconclusive: 112 µM [inhibitor, partial curve, poor fit]. For `C#CCNC(=O)[C@@H]1Cc2cn(Cc3cccnc3)c3cccc(c23)[C@H](CC(C)C)N1`, the “activity change, negative = inhibition” value was inactive: 106% [at 176 µM]. With `CCCOc1ccc(-c2nc(C#N)c(NCCCN(C)C)o2)cc1` the “activity change, negative = inhibition” value was inactive: 2.69%. `O=C(NCC1CCC2(CCN(Cc3ccccc3O)CC2)O1)C1CCCO1` (centres undefined) was tested, and the Potency was inconclusive: 126 µM [inhibitor, single point]. `CCC(C)(C)C1CCC(NC(=O)Cn2nc(C(N)=O)c3ccccc3c2=O)CC1` (centres undefined) was tested, and the Potency was inconclusive: 89.1 µM [inhibitor, partial curve, poor fit]. With `CNC(=O)COC(=O)c1nc(-n2nc(C)cc2C)ccc1Cl` the “activity change, negative = inhibition” value was inactive: 20.3%. `COc1ccc2cnn(CC(=O)N3CCN(c4ccccc4F)CC3)c(=O)c2c1OC` was tested, and the “activity change, negative = inhibition” value was inactive: 12.7%. For `Cc1ccc(S(=O)(=O)N2CCN(C(=O)Cc3ccc(S(=O)(=O)N4CCOCC4)s3)CC2)cc1`, the “activity change, negative = inhibition” value was inactive: 420%. For `CC(C)CSc1nc2c(c(=O)[nH]c(=O)n2C)n1CC(O)COc1cccc2ccccc12` (centres undefined), the Potency was inconclusive: 39.8 µM [inhibitor, partial curve, poor fit].
